Reference: US20220363770A1
No constants are given. Whether binding was seen depends on the method and setting. Some entries that bind do so weakly or less than the wild type.

Amino acid sequences for entries named in this document (tags omitted). A change or cut given only in a name is not applied to a line headed by its entry.
UniProt Q16602: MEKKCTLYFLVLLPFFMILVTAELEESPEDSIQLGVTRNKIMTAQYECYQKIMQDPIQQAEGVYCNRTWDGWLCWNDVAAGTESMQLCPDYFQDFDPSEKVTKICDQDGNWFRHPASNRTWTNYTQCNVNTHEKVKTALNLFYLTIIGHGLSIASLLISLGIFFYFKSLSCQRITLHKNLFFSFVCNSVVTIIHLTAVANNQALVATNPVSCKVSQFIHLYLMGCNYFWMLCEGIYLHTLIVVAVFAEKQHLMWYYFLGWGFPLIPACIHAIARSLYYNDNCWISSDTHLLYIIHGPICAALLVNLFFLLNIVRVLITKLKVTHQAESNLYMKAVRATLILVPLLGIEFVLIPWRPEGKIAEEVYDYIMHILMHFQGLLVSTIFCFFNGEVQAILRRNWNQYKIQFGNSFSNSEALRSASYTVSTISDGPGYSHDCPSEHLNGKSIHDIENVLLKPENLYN

B1: anti-CGRP receptor variant 10, yeast-displayed Fab (Fab, V domains shown)
VH: QVQLVESGGGVVQPGRSLRLSCAASGFFFGSYGMHWVRQAPGKGLEWVAVISFAGEIEHYVDSVKGRFTISRDNSKNTLFLQMNSLRAEDTAVYYCARDRLNYYESSGYYHYKYYGMAVWGQGTTVTVSS
VL: QSVLTQPPSVSAAPGQKVTISCSGSSSNIGNNYVSWYQQLPGTAPKLLIYDNNKRPSGIPDRFSGSKSGTSATLGITGLQTGDEADYYCGTWDSRLSAVVFGGGTKLTVLG
B2: anti-CGRP receptor variant 05, yeast-displayed Fab (Fab, V domains shown)
VH: QVQLVESGGGVVQPGRSLRLSCAASGFTFSSFGMHWVRQAPGKGLEWVAVISFDGSIKYSVDSVKGRFTISRDNSKNTLFLQMNSLRAEDTAVYYCARDRLNYYESSGYYHYKYYGMAVWGQGTTVTVSS
VL: QSVLTQPPSVSAAPGQKVTISCSGSFSNIGRSTVSWYQQLPGTAPKLLIYDNRWRAGGIPDRFSGSKSGTSATLGITGLQTGDEADYYCGTWDYQWKAVVFGGGTKLTVLG
B3: anti-CGRP receptor variant 12, yeast-displayed Fab (Fab, V domains shown)
VH: QVQLVESGGGVVQPGRSLRLSCAASGFTFSSFGMHWVRQAPGKGLEWVAVISFDGSIKYSVDSVKGRFTISRDNSKNTLFLQMNSLRAEDTAVYYCARDRLNYYESSGYYHYKYYGMAVWGQGTTVTVSS
VL: QSVLTQPPSVSAAPGQKVTISCSGSRSNIGRYSVSWYQQLPGTAPKLLIYDNRYRAQGIPDRFSGSKSGTSATLGITGLQTGDEADYYCGTWDWATTSVVFGGGTKLTVLG
B4: anti-CGRP receptor variant 13, yeast-displayed Fab (Fab, V domains shown)
VH: QVQLVESGGGVVQPGRSLRLSCAASGFTFSSFGMHWVRQAPGKGLEWVAVISFDGSIKYSVDSVKGRFTISRDNSKNTLFLQMNSLRAEDTAVYYCARDRLNYYESSGYYHYKYYGMAVWGQGTTVTVSS
VL: QSVLTQPPSVSAAPGQKVTISCSGSRSNIGRRTVSWYQQLPGTAPKLLIYDNNKRPSGIPDRFSGSKSGTSATLGITGLQTGDEADYYCGTWDSRLSAVVFGGGTKLTVLG
B5: anti-CGRP receptor variant 06, yeast-displayed Fab (Fab, V domains shown)
VH: QVQLVESGGGVVQPGRSLRLSCAASGFTFSSFGMHWVRQAPGKGLEWVAVISFDGSIKYSVDSVKGRFTISRDNSKNTLFLQMNSLRAEDTAVYYCARDRLNYYESSGYYHYKYYGMAVWGQGTTVTVSS
VL: QSVLTQPPSVSAAPGQKVTISCSGSYSNIGRKSVSWYQQLPGTAPKLLIYDNNKRPSGIPDRFSGSKSGTSATLGITGLQTGDEADYYCGTWDSRLSAVVFGGGTKLTVLG
B6: anti-CGRP receptor variant 01, yeast-displayed Fab (Fab, V domains shown)
VH: QVQLVESGGGVVQPGRSLRLSCAASGFTFSSFGMHWVRQAPGKGLEWVAVISFDGSIKYSVDSVKGRFTISRDNSKNTLFLQMNSLRAEDTAVYYCARDRLNYYESSGYYHYKYYGMAVWGQGTTVTVSS
VL: QSVLTQPPSVSAAPGQKVTISCSGSYSNIGRYSVSWYQQLPGTAPKLLIYDNNKRPSGIPDRFSGSKSGTSATLGITGLQTGDEADYYCGTWDSRLSAVVFGGGTKLTVLG
B7: anti-CGRP receptor variant 09, yeast-displayed Fab (Fab, V domains shown)
VH: QVQLVESGGGVVQPGRSLRLSCAASGFTFSSFGMHWVRQAPGKGLEWVAVISFAGEIDYYVDSVKGRFTISRDNSKNTLFLQMNSLRAEDTAVYYCARDRLNYYESSGYYHYKYYGMAVWGQGTTVTVSS
VL: QSVLTQPPSVSAAPGQKVTISCSGSSSNIGNNYVSWYQQLPGTAPKLLIYDNNKRPSGIPDRFSGSKSGTSATLGITGLQTGDEADYYCGTWDSRLSAVVFGGGTKLTVLG
B8: anti-CGRP receptor variant 07, yeast-displayed Fab (Fab, V domains shown)
VH: QVQLVESGGGVVQPGRSLRLSCAASGFYFMTYGMHWVRQAPGKGLEWVAVISFDGSIKYSVDSVKGRFTISRDNSKNTLFLQMNSLRAEDTAVYYCARDRLNYYESSGYYHYKYYGMAVWGQGTTVTVSS
VL: QSVLTQPPSVSAAPGQKVTISCSGSSSNIGNNYVSWYQQLPGTAPKLLIYDNNKRPSGIPDRFSGSKSGTSATLGITGLQTGDEADYYCGTWDSRLSAVVFGGGTKLTVLG
B9: anti-CGRP receptor variant 02, yeast-displayed Fab (Fab, V domains shown)
VH: QVQLVESGGGVVQPGRSLRLSCAASGFTFSSFGMHWVRQAPGKGLEWVAVISFDGSIKYSVDSVKGRFTISRDNSKNTLFLQMNSLRAEDTAVYYCARDRLNYYESSGYYHYKYYGMAVWGQGTTVTVSS
VL: QSVLTQPPSVSAAPGQKVTISCSGSRSNIGIKAVSWYQQLPGTAPKLLIYDNNKRPSGIPDRFSGSKSGTSATLGITGLQTGDEADYYCGTWDSRLSAVVFGGGTKLTVLG
B10: anti-CGRP receptor variant 14, yeast-displayed Fab (Fab, V domains shown)
VH: QVQLVESGGGVVQPGRSLRLSCAASGFTFSSFGMHWVRQAPGKGLEWVAVISFDGSIKYSVDSVKGRFTISRDNSKNTLFLQMNSLRAEDTAVYYCARDRLNYYESSGYYHYKYYGMAVWGQGTTVTVSS
VL: QSVLTQPPSVSAAPGQKVTISCSGSSSNIGNNYVSWYQQLPGTAPKLLIYDNNKRPSGIPDRFSGSKSGTSATLGITGLQTGDEADYYCGTWDSWHRVVTFGGGTKLTVLG
B11: anti-CGRP receptor variant 08, yeast-displayed Fab (Fab, V domains shown)
VH: QVQLVESGGGVVQPGRSLRLSCAASGFTFSSFGMHWVRQAPGKGLEWVAVISFDGSIKYSVDSVKGRFTISRDNSKNTLFLQMNSLRAEDTAVYYCARDRLNYYESSGYYHYKYYGMAVWGQGTTVTVSS
VL: QSVLTQPPSVSAAPGQKVTISCSGSYSNIGWWPVSWYQQLPGTAPKLLIYDNNKRPSGIPDRFSGSKSGTSATLGITGLQTGDEADYYCGTWDSRLSAVVFGGGTKLTVLG
B12: anti-CGRP receptor variant 04, yeast-displayed Fab (Fab, V domains shown)
VH: QVQLVESGGGVVQPGRSLRLSCAASGFTFSSFGMHWVRQAPGKGLEWVAVISFDGSIKYSVDSVKGRFTISRDNSKNTLFLQMNSLRAEDTAVYYCARDRLNYYRSFGYYGYHYYGMAVWGQGTTVTVSS
VL: QSVLTQPPSVSAAPGQKVTISCSGSSSNIGNNYVSWYQQLPGTAPKLLIYDNNKRPSGIPDRFSGSKSGTSATLGITGLQTGDEADYYCGTWDSRLSAVVFGGGTKLTVLG
B13: anti-CGRP receptor variant 15, yeast-displayed Fab (Fab, V domains shown)
VH: QVQLVESGGGVVQPGRSLRLSCAASGFTFSSFGMHWVRQAPGKGLEWVAVISFDGSIKYSVDSVKGRFTISRDNSKNTLFLQMNSLRAEDTAVYYCARDRLNYYESSGYYHYKYYGMAVWGQGTTVTVSS
VL: QSVLTQPPSVSAAPGQKVTISCSGSSSNIGNNYVSWYQQLPGTAPKLLIYDNNKRPSGIPDRFSGSKSGTSATLGITGLQTGDEADYYCGTWDWWRKAVIFGGGTKLTVLG

target: human CGRP receptor extracellular domain (ECD) (human) (UniProt Q16602); assay: yeast-displayed Fab binding screens

binding, binds:
B1
B2
B3
B4
B5
B6
B7
B8
B9
B10
B11
B12
B13
